Laboratory results reported in publication PMC10441475, “Structure of METTL3-METTL14 with an m6A nucleotide reveals insights into m6A conversion and sensing”.
Weaker means in comparison with the reference protein, sequence or condition of that experiment. For some assays here: The exact form of at least one protein or probe is not confirmed. For some assays here: At least one verdict rests on a figure or table, not on a statement of the authors.

What was measured:
[1] = tested on: METTL3 E481A + METTL14 WT; assay: fluorescence polarization; conditions: FP: 10 mM HEPES pH 7.5, 50 mM KCl, 5 nM RNA, recombinant protein, protein details: His-tag removed by TEV, label: 5' fluorescein
[2] = tested on: METTL3 WT + METTL14 R298P; assay: fluorescence polarization; conditions: weakest mutant, nanomolar, FP: 10 mM HEPES pH 7.5, 50 mM KCl, 5 nM RNA, recombinant protein, protein details: His-tag removed by TEV, label: 5' fluorescein
[3] = tested on: METTL3 del472-474 + METTL14 WT; assay: fluorescence polarization; conditions: FP: 10 mM HEPES pH 7.5, 50 mM KCl, 5 nM RNA, recombinant protein, protein details: His-tag removed by TEV, label: 5' fluorescein
[4] = tested on: METTL3 K459A + METTL14 WT; assay: fluorescence polarization; conditions: FP: 10 mM HEPES pH 7.5, 50 mM KCl, 5 nM RNA, recombinant protein, protein details: His-tag removed by TEV, label: 5' fluorescein
[5] = tested on: METTL3 H478A + METTL14 WT; assay: fluorescence polarization; conditions: FP: 10 mM HEPES pH 7.5, 50 mM KCl, 5 nM RNA, recombinant protein, protein details: His-tag removed by TEV, label: 5' fluorescein
[6] = tested on: METTL3 R471H + METTL14 WT; assay: fluorescence polarization; conditions: nanomolar, FP: 10 mM HEPES pH 7.5, 50 mM KCl, 5 nM RNA, recombinant protein, protein details: His-tag removed by TEV, label: 5' fluorescein
[7] = tested on: METTL3 T433A + METTL14 WT; assay: fluorescence polarization; conditions: FP: 10 mM HEPES pH 7.5, 50 mM KCl, 5 nM RNA, recombinant protein, protein details: His-tag removed by TEV, label: 5' fluorescein
[8] = tested on: METTL3 del472-473 + METTL14 WT; assay: fluorescence polarization; conditions: FP: 10 mM HEPES pH 7.5, 50 mM KCl, 5 nM RNA, recombinant protein, protein details: His-tag removed by TEV, label: 5' fluorescein
[9] = tested on: METTL3 WT + METTL14 R298P; assay: 2-aminopurine fluorescence titration; conditions: 10 mM MgCl2; 2-aminopurine at position 7 (written as A); recombinant protein; protein details: His-tag removed by TEV; label: 2-aminopurine

Measured: binding result

GCCUAGUAGCAGAGAGGACUGCUCCUUGGU [Fl-NEAT2* (A-RNA)]
binds more weakly: [1] | [2] | [3] | [4] | [5] | [6] | [7] | [8]

GCCUAGUAGCAGAGAGGACUGCUCCUUGGU [Fl-NEAT2*-m6A (m6A-RNA)]
binds more weakly: [1]; m6A at position 18 | [2]; m6A at position 18 | [3]; m6A at position 18 | [4]; m6A at position 18 | [5]; m6A at position 18 | [6]; m6A at position 18 | [7]; m6A at position 18 | [8]; m6A at position 18

CUUCGGACUCUGCU [r6T* (2-Ap)]
binds more weakly: [9]
